{"source": "paper PMC10726352", "about": "“Discovery of KB-0742, a Potent, Selective, Orally Bioavailable Small Molecule Inhibitor of CDK9 for MYC-Dependent Cancers” (Journal of Medicinal Chemistry, 2023)", "assay_in_all_cases": "OncoPanel Multiplexed Cytotoxicity Assay", "assay_type_in_all_cases": "cell-based", "key": {"BT-20": {"tested_on": "BT-20", "settings": "Homo sapiens, BT-20, 72 h, read-out: Cell count IC50"}, "BT-549": {"tested_on": "BT-549", "settings": "Homo sapiens, BT-549, 72 h"}, "MDA-MB-231": {"tested_on": "MDA-MB-231", "settings": "Homo sapiens, MDA-MB-231, 72 h"}, "MT-3": {"tested_on": "MT-3", "settings": "MT-3, 72 h"}, "Hs 578T": {"tested_on": "Hs 578T", "settings": "Homo sapiens, 72 h"}}, "data": [{"smiles": "CN[C@@H]1C[C@H]2O[C@@](C)([C@@H]1OC)n1c3ccccc3c3c4c(c5c6ccccc6n2c5c31)C(=O)NC4", "note": "[Staurosporine]", "values": [{"measurement": "IC50", "setting": "BT-20", "value": 63.8, "unit": "nM"}, {"measurement": "EC50", "setting": "BT-549; read-out: Cell Count EC50", "value": 10.2, "unit": "nM"}, {"measurement": "IC50", "setting": "BT-549; read-out: Cell count IC50", "value": 11.4, "unit": "nM"}, {"measurement": "EC50", "setting": "MDA-MB-231; read-out: Cell Count EC50", "value": 1.18, "unit": "nM"}, {"measurement": "GI50", "setting": "MDA-MB-231; read-out: Cell count GI50", "value": 1.24, "unit": "nM"}, {"measurement": "EC50", "setting": "MT-3; read-out: Cell Count EC50", "value": 11.4, "unit": "nM"}, {"measurement": "IC50", "setting": "MT-3; read-out: Cell count IC50", "value": 13.5, "unit": "nM"}, {"measurement": "EC50", "setting": "Hs 578T; read-out: Cell Count EC50", "value": 1.64, "unit": "nM"}, {"measurement": "IC50", "setting": "Hs 578T; read-out: Cell count IC50", "value": 2.39, "unit": "nM"}]}]}
